Measurements reported in PubChem BioAssay AID1259308 (NCATS, 2017)

Assay: 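Candidate targets for better recombinant protein yield in mammalian cells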 (primary screen)
Cells: human HEK293 embryonic kidney cells stably expressing firefly luciferase (HEK-CMV-Luc2-Hygro)
Reagents: single siRNA against human genes, 0.8 pmol siRNA per well
Duration: 72 h
Detection: 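Luciferase light (ONE-Glo) measured on one replicate plate set and viability (CellTiter-Glo) on the other, scaled to a negative control siRNA, with robust z-scores and luciferase per cell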
Scale: total luciferase, z-score and total luciferase, % of control: higher = more reporter protein produced; luciferase per cell, z-score: higher = more reporter output per viable cell; viable cells, % of control: higher = more viable cells
Rule for the call: 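Active when the median/MAD z-score for overall luciferase is greater than 3; a gene was taken forward for validation with new siRNAs if at least two of its three siRNAs passed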
Meaning of the calls: active = raised luciferase; inactive = no rise
This is an unselected part of about 59,000 deposited reagents. Of all reagents, about 1,510 (2.6%) were called active. 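Calls use total luciferase alone and ignore viability, so some active siRNAs may act by altering cell number.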 Reagents against one gene are numbered here. No sequences are given here.

| gene | reagent no. | total luciferase, z-score | total luciferase, % of control | luciferase per cell, z-score | viable cells, % of control | Outcome |
| --- | --- | --- | --- | --- | --- | --- |
| TBC1D10C (TBC1 domain family member 10C) | 1 | -0.949 | 63 | 0.99 | 54.2 | inactive |
| TBC1D10C (TBC1 domain family member 10C) | 2 | 1.04 | 103 | 1.15 | 84.6 | inactive |
| TBC1D10C (TBC1 domain family member 10C) | 3 | -0.966 | 62.7 | -0.997 | 91.1 | inactive |
| GIN1 (gypsy retrotransposon integrase 1) | 1 | 0.26 | 87.1 | 0.088 | 95.1 | inactive |
| GIN1 (gypsy retrotransposon integrase 1) | 2 | 1.2 | 106 | 0.903 | 93.2 | inactive |
| GIN1 (gypsy retrotransposon integrase 1) | 3 | 0.186 | 85.6 | -0.221 | 101 | inactive |
| KLF15 (KLF transcription factor 15) | 1 | 1.31 | 108 | 1.01 | 92.4 | inactive |
| KLF15 (KLF transcription factor 15) | 2 | 0.997 | 102 | 0.563 | 98 | inactive |
| KLF15 (KLF transcription factor 15) | 3 | 1.43 | 110 | 1.28 | 88.1 | inactive |
| PCDH1 (protocadherin 1) | 1 | 0.681 | 95.4 | 0.53 | 92.8 | inactive |
| PCDH1 (protocadherin 1) | 2 | 0.265 | 87.2 | 0.617 | 82.8 | inactive |
| PCDH1 (protocadherin 1) | 3 | -0.505 | 71.8 | 0.118 | 77.8 | inactive |
| PCMT1 (protein-L-isoaspartate (D-aspartate) O-methyltransferase) | 1 | -0.893 | 64.1 | 0.479 | 63.2 | inactive |
| PCMT1 (protein-L-isoaspartate (D-aspartate) O-methyltransferase) | 2 | -0.424 | 73.4 | -0.691 | 98.5 | inactive |
| PCMT1 (protein-L-isoaspartate (D-aspartate) O-methyltransferase) | 3 | -1.34 | 55.3 | -1.26 | 86.1 | inactive |
| PCDHGA9 (protocadherin gamma subfamily A, 9) | 1 | -0.174 | 78.4 | -0.136 | 90.8 | inactive |
| PCDHGA9 (protocadherin gamma subfamily A, 9) | 2 | -0.421 | 73.5 | -0.265 | 88.1 | inactive |
| PCDHGA9 (protocadherin gamma subfamily A, 9) | 3 | 0.886 | 99.5 | 0.866 | 88.5 | inactive |
| OPN5 (opsin 5) | 1 | -0.998 | 62 | -0.678 | 82.9 | inactive |
| OPN5 (opsin 5) | 2 | -0.54 | 71.1 | -0.722 | 96.1 | inactive |
| OPN5 (opsin 5) | 3 | -1.43 | 53.5 | -1.36 | 85.6 | inactive |
| DENND4B (DENN domain containing 4B) | 1 | -1.8 | 46.1 | -0.501 | 58.7 | inactive |
| DENND4B (DENN domain containing 4B) | 2 | 0.866 | 99.1 | 1.24 | 79.9 | inactive |
| DENND4B (DENN domain containing 4B) | 3 | 1.88 | 119 | 2.04 | 77.8 | inactive |

A few values from above.
For “luciferase per cell, z-score”, OPN5 (opsin 5) #2 reads -0.722
Entry of PCDHGA9 (protocadherin gamma subfamily A, 9) #1 under “luciferase per cell, z-score”: -0.136
Value for GIN1 (gypsy retrotransposon integrase 1) #2 under “total luciferase, % of control”: 106
